A short description of the data set: physchem. The following applies: pH 9, aqueous buffer.

In brackets after ≈: the same amount, converted by molar mass.

A word on the solubility: it is the concentration that dissolves in the medium under given conditions. Consider `CN1CC[C@]23c4c5ccc(O)c4O[C@H]2[C@@H](O)C=C[C@H]3[C@H]1C5` [morphine], for which the concentration in solution (solubility) was 208 µg/mL (≈ 729 µM).

Values taken from patent US20250188090A1, “A METHOD FOR EXTRACTION OF ALKALOID” (priority 2022, published 2025).
